In PubChem BioAssay AID1508600 (Functional Genomics Laboratory (NCATS/FGL), 2020):
The whole screen tested about 53,000 sequences, of which about 3,700 (7%) were called active.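 The calls were made as follows: active = gene knockdowns whose robust z-score for IL-1 alpha signal is at least 2 or at most -2, so actives lie on both sides; inactive = the rest.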 This is one part of the list.

assay: Components of the Cytosolic LPS Sensing Pathway: Gene Identification via Genome-wide siRNA Screen; settings: RAW264.7 macrophages, IL-1a HTRF, actives lie on both sides, screened at 100 nM (by protocol), cells primed 5 h with Pam3CSK4 first;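 also: robust z of the log signal after scaling to non-targeting control siRNA wells of the plate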
Outline: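 Using IL-1a HTRF as read-out, the screen measured release from RAW264.7 cells after 48h siRNA knockdown (100 nM), 5 h Pam3CSK4 priming and 24 h cytosolic LipidA. Values were expressed relative to negative-control wells as robust z-scores.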

Row | Sequence | z-score
1 | GGCUGCAUGACCCAAUUGUTT against Olfr1221 | inactive: 0.812
2 | GGGUCUUCAGUAUUAACACTT against Yae1d1 | active: 2.62
3 | GGCUUGAAUGCCACAGCUGTT against Slc26a6 | inactive: -0.104
4 | CCCUAAGGAUGGUAUAUUUTT against Gm11507 | inactive: -0.0561
5 | GGCCAAAAAGGAGGCACCATT against Rps15 | inactive: 0.662
6 | GGCUAUCCAGAGAUACGUGTT against Snrnp25 | inactive: -0.571
7 | CCUAACUGAAUUUUUCGUGTT against Cse1l | inactive: -1.14
8 | GGGCUGUACUAAAAACUAATT against Olfr93 | inactive: -0.145
9 | GGGAGUUCAAGCCAGUUAUTT against Slc46a1 | inactive: -0.629
10 | GGACCUACAUAACAAGCUUTT against Thnsl2 | inactive: 1.83
11 | GCACUGAGCUGUGAAAACATT against Mzf1 | inactive: 0.179
12 | GCCAAAUGUGCGUCAUCUATT against Zdhhc25 | active: -2.54
13 | GACGGACUGUCCUCUAACGTT against Baalc | inactive: -0.823
14 | GGGAUGCAUUAUUAUUUACTT against Heg1 | inactive: 1.39
15 | GGCUGAAAAUUCCAGACUGTT against Krt39 | inactive: -1.22
16 | CCCUGACCGAAACCCUCGCTT against LOC547349 | inactive: 0.153
17 | GGAAGAGAAGGAGAAUGAATT against Patl2 | inactive: -0.152
18 | CGACCAUUCCUUUGAGUUATT against Atl1 | active: 3.09
19 | GCAAAAAGGCAGUAUUCUATT against Atp23 | inactive: 0.449
20 | GGAAACAACCAUCGAGGUUTT against Cyp4x1 | inactive: -0.31
21 | CGUGAACAUUUCCUACAUATT against Ces3b | inactive: 0.584
22 | GGAGAGAUGGUGGAUUAUATT against Col13a1 | inactive: 1.15
23 | GCAGCCUCGUUUAACUAAATT against Gpbp1 | inactive: -0.802

Row | Sequence | z-score
24 | GCAUAAGCCACACCCUCUGTT against Cops7a | inactive: 1.03
25 | CGUAUAUGUAUGCUACAUATT against Cend1 | inactive: -0.805
26 | GGUGGACUCGCUGAAGAGUTT against Krt1 | inactive: -1.31
27 | GGAUGCUUAUGAGGAAAUATT against 1700019D03Rik | inactive: -1.72
28 | GGAACUAUGCCUCUCGUAUTT against Th | inactive: -0.67
29 | GGAAGAGCUGAGAUUCGCCTT against Atf3 | inactive: -0.511
30 | GGGAAUGACUCCACAUUGCTT against Limd1 | active: 2.01
31 | CGUGGUUGUUACCUCCACATT against Stfa2l1 | inactive: -0.411
32 | GGUGGAUCAGGAAGUGAACTT against Itgb8 | inactive: -0.316
33 | GACCCUUGUUCUUAGCCUUTT against Defa-rs2 | inactive: 1.1
34 | GGUGACUUUCUUUAAUCAGTT against Nt5c | inactive: -1.04
35 | GUGUGUGAUGUUCCCUAUGTT against H2-K1 | inactive: -0.604
36 | GCACCUGUAGUUUUAAGCGTT against Traf3 | inactive: -0.144
37 | CCUUUACGAACCUUCUGUCTT against Tmem237 | inactive: -1.11
38 | CCAUGACUACAACACAUACTT against Ndufv3 | active: -3.07
39 | CCCUACAUUCUGUAUAGCCTT against Olfr474 | inactive: 1.05
40 | GAGCUGUUGUAUCAACUCUTT against Gm10037 | inactive: -0.0127
41 | GGUGAGAAAGAUUGAGAUUTT against Pdgfb | inactive: -0.163
42 | GGCUGUCAUCAUGUUGGUUTT against Slc5a4a | inactive: -0.336
43 | GGUAAAAUGUACUCAAUGUTT against Hexim1 | inactive: 0.366
44 | GAAAUGUUUGACACAACCUTT against Raet1b | inactive: 0.69
45 | GCAGUUACAGGAAAUCGAGTT against Cdr2 | inactive: -0.746
46 | GCCAUCUAGCUACUGACACTT against Tubb3 | inactive: 0.681

Two entries drawn at random from those above, as already listed:
Row | Sequence | z-score
30 | GGGAAUGACUCCACAUUGCTT against Limd1 | active: 2.01
3 | GGCUUGAAUGCCACAGCUGTT against Slc26a6 | inactive: -0.104

Next results.

Row | Sequence | z-score
47 | GGGAUCAGUCUACACGUCGTT against Irx2 | inactive: -1.32
48 | GGACAACAAGGCUUGCUACTT against Plxna2 | inactive: 0.215
49 | GGUGACCUAUGCAUAUAUCTT against Septin11 | inactive: 0.395
50 | GGGCAUCUCAGAUUUAGCUTT against Cct3 | inactive: -0.0572
51 | CCUCAUGGUGAUGAUAUCCTT against Taar6 | inactive: -1.35
52 | CCACUUUAAAGGCUCUUCUTT against H3c8 | active: -2.17
53 | GGUAUGUAGGAAUUACAGUTT against AI606181 | active: 2.49
54 | CCAUAAAAUCAUCAUGAGATT against Atg12 | inactive: -0.682
55 | GCCUCAAAAGACAAGGUGUTT against Prr14 | inactive: -0.0313
56 | GGCUAAGUUUUUAAAGAACTT against Ncald | inactive: -1.25
57 | GGACUAUUACACAUUAGUGTT against Rbp3 | inactive: -1.41
58 | CCAACAAGCCUAAUUAAAGTT against Thumpd3 | inactive: -0.896
59 | GGUGGCUGUAAAGAAGUUATT against Map3k20 | inactive: 0.513
60 | GGAAGACCUUCUUAAACACTT against Prokr2 | inactive: 1.26
61 | GCCACGUACAUCCACUCUCTT against Pxmp4 | inactive: -0.773
62 | GGAGUAUUUAUCAACGGCATT against Pax3 | inactive: -1.07
63 | GGAUAGGAAGAAAAUGAAGTT against Slfn2 | active: -2.83
64 | CCUUUUUCGGCUUGUAUAATT against Fasl | inactive: 0.769
65 | GGUCAAAGAUGGAGUAAAUTT against Tmem87a | active: -2.31
66 | GGGCAUCUCUCCUGAAUACTT against Mbip | inactive: 0.00751
67 | CGAUCAUAUACAGACACAUTT against Ms4a4d | inactive: 1.7
68 | GCCACAGAGCUAGACUGUCTT against Wdr86 | inactive: 0.241

Some of the entries so far, with each value named:
GGAAGACCUUCUUAAACACTT against Prokr2
  z-score: inactive: 1.26
GCCACGUACAUCCACUCUCTT against Pxmp4
  z-score: inactive: -0.773
